From doi:10.1101/2023.01.12.523874
Results are given in words; binding and its absence hold for the method and conditions named. In cells and extracts the contact can be indirect. Tags and fused reporters may be left off the sequences shown.

Columns and labels:
Test in all cases: pull-down
[1] = molecular target: T1, GST-FliF_4, C-terminus (493-580) of Vibrio FliF after the second transmembrane region (Vibrio alginolyticus) (UniProt Q75N27)
T1 sequence: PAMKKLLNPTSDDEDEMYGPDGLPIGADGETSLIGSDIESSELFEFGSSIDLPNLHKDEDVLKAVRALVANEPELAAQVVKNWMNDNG

[2] = molecular target: T2, GST-FliF_1, N-terminus (1-55) of Vibrio FliF without the first transmembrane region (Vibrio alginolyticus) (UniProt Q75N27)
T2 sequence: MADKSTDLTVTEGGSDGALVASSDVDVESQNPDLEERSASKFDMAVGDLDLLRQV

[3] = molecular target: T3, GST-FliF_2, N-terminus (1-80) of Vibrio FliF containing the first transmembrane region (Vibrio alginolyticus) (UniProt Q75N27)
T3 sequence: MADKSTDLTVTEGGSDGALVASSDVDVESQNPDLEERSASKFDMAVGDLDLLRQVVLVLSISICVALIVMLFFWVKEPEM

[4] = molecular target: T4, GST-FliF_3, periplasmic region (74-469) of Vibrio FliF (Vibrio alginolyticus) (UniProt Q75N27)
T4 sequence: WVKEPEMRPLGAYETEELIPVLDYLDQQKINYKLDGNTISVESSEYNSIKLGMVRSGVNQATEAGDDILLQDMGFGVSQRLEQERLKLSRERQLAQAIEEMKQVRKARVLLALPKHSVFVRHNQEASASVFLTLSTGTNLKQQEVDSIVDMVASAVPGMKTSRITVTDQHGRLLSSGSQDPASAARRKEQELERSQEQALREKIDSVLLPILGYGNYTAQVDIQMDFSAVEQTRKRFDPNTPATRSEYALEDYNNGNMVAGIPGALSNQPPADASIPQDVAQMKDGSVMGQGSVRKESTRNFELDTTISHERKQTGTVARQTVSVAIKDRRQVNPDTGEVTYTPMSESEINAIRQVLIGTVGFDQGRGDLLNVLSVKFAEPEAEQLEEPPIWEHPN

Measured: binding

FlhF overproduced from plasmid pTSK110 (Vibrio alginolyticus)
no binding: all assays above
